[ ]: non-standard residue; d: D form. dPhe(4-Cl) = N[C@H](Cc1ccc(Cl)cc1)C(=O)O; d2Nal = N[C@H](Cc1ccc2ccccc2c1)C(=O)O; d3Pal = N[C@H](Cc1cccnc1)C(=O)O
Legend:
[1] = general procedure: Fmoc solid-phase peptide synthesis; Rink Amide resin; DIC/HOBt; details: whole synthesis, scale of the general procedure 10 g or 100 g of Rink Amide resin, 0.5 mmol/g, acetate, run 1
[2] = general procedure: Fmoc solid-phase peptide synthesis; Rink Amide resin, Rink Amide AM resin or Rink Amide MBHA resin; DIC/HOBt; details: whole synthesis, scale of the general procedure 10 g or 100 g of Rink Amide resin, 0.5 mmol/g, acetate

For “Ac-[d2Nal][dPhe(4-Cl)][d3Pal]SY[dK]LKP[dA]-NH2”, the “crude purity (method not given)” value ([1]; HPLC) was 90%, the crude yield [1] was 98% and the “crude HPLC purity” value ([2]; HPLC) was 90.67%. For the same substance, the “crude purity (method not given)” value ([2]; HPLC, run 2) was 91% and the crude yield ([2]; run 2) was 99.8%.

From patent US10577394 (dated 2020)
